Reference: PMC4793043
These are yes or no findings as the source states them, for the method shown. Binding seen in cells or lysates may run through a third protein. A yes stands for co-enrichment or nearness to the bait. Other partners may have been found.

Sequences of proteins named here, by UniProt entry; tags and fusion partners are left off.
UniProt P17844: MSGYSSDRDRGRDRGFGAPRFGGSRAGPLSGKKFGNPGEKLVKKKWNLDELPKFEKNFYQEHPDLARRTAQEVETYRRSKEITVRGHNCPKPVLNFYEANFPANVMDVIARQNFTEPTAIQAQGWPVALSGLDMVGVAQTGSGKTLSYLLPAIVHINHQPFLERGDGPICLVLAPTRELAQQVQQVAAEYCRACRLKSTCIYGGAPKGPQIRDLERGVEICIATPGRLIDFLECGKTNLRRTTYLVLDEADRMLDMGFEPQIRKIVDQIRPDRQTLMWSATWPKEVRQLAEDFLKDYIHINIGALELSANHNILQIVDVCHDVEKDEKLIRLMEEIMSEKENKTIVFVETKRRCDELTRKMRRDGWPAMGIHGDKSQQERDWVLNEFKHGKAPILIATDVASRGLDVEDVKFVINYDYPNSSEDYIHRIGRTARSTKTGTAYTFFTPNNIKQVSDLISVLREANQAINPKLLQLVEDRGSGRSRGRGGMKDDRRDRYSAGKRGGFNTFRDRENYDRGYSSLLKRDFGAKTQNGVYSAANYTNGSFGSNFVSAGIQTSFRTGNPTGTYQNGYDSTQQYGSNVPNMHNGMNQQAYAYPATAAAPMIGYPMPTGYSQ

Target: HA-TLX (stable HeLa cell line) (UniProt Q64104)
Assay: affinity purification with mass spectrometry; nuclear extracts of stable HeLa cells expressing HA or HA-TLX, pre-cleared, incubated with HA beads at 4 °C overnight; gel bands analysed by LC-MS/MS

binding: binds
Substance: RNA helicase p68 (DDX5), endogenous in HeLa (from UniProt P17844 1-614)
